Measurements published in patent publication US9888688B2, “Tetrazolinone compounds and applications thereof” (Sumitomo Chemical Company, Limited, priority 2013, dated 2018).
Some entries share one result that the patent states for a list of compounds.

How the values were obtained:
Assay type in all cases: in vivo
[1] = tested on: wheat leaf blotch fungus (Septoria tritici); assay: Wheat leaf blotch control test, spray before inoculation (Test Examples 6, 9, 10, Comparative Test Example); settings: wheat APOGEE, inoculated after 4 days
[2] = tested on: barley net blotch fungus (Pyrenophora teres); assay: Barley net blotch control test, foliar spray on barley (Test Examples 4, 16, 17, 18); settings: barley NISHINOHOSHI, inoculated after 2 days
[3] = tested on: kidney bean stem rot fungus (Sclerotinia sclerotiorum); assay: Kidney bean stem rot control test, foliar spray on kidney bean (Test Examples 5, 22, 23); settings: kidney bean NAGAUZURA NATANE, four days after inoculation
[4] = tested on: cucumber corynespora leaf spot fungus (Corynespora cassicola); assay: Cucumber corynespora leaf spot control test (Test Examples 26, 27); settings: cucumber SAGAMI HANJIRO, inoculated after one day, 7 days
[5] = tested on: barley scald fungus (Rhynchosporium secalis); assay: Barley scald control test, foliar spray on barley (Test Examples 20, 21); settings: 200 ppm foliar spray, barley NISHINOHOSHI, inoculated after 2 days

Measured: area of lesion spots relative to that on an untreated plant

CCOc1cccc(-n2nnn(C)c2=O)c1COc1ccc(-c2cc(Cl)ccn2)cc1C [Present Compound 16]
≤ 30%: [1]; 200 ppm foliar spray | [1]; 500 ppm foliar spray | [2]; 200 ppm foliar spray | [2]; 500 ppm foliar spray | [3]; 200 ppm foliar spray | [3]; 500 ppm foliar spray | [4]; 50 ppm foliar spray

COc1cccc(-n2nnn(C)c2=O)c1COc1ccc(-c2ccnc(C)n2)cc1C [Present Compound 78]
≤ 30%: [5] | [1]; 200 ppm foliar spray | [1]; 500 ppm foliar spray | [2]; 200 ppm foliar spray | [2]; 500 ppm foliar spray | [3]; 200 ppm foliar spray | [3]; 500 ppm foliar spray | [4]; 200 ppm foliar spray

Cc1ccnc(-c2ccc(OCc3c(-n4nnn(C)c4=O)cccc3[S+](C)[O-])c(C)c2)n1 (stereo not shown) [Present Compound 125, 1-{2-[2-methyl-4-(6-methylpyrimidin-2-yl)-phenoxymethyl]-3-methylsulfinylphenyl}-4-methyl-1,4-dihydrotetrazol-5-one]
≤ 30%: [5] | [1]; 200 ppm foliar spray | [2]; 500 ppm foliar spray | [3]; 500 ppm foliar spray | [4]; 200 ppm foliar spray

Cc1cc(-c2cccnc2C)ccc1OCc1c(C)cccc1-n1nnn(C)c1=O [Present Compound 67]
≤ 30%: [5] | [1]; 200 ppm foliar spray | [1]; 500 ppm foliar spray | [2]; 200 ppm foliar spray | [2]; 500 ppm foliar spray | [3]; 200 ppm foliar spray | [3]; 500 ppm foliar spray | [4]; 200 ppm foliar spray

Cc1cc(-c2cnccc2Cl)ccc1OCc1c(C)cccc1-n1nnn(C)c1=O [Present Compound 69]
≤ 30%: [5] | [1]; 200 ppm foliar spray | [1]; 500 ppm foliar spray | [2]; 200 ppm foliar spray | [2]; 500 ppm foliar spray | [3]; 200 ppm foliar spray | [3]; 500 ppm foliar spray | [4]; 200 ppm foliar spray

Cc1cc(-c2cncc(C3CC3)c2)c(C)cc1OCc1c(C)cccc1-n1nnn(C)c1=O [Present Compound 248]
≤ 30%: [5] | [1]; 200 ppm foliar spray | [1]; 500 ppm foliar spray | [2]; 200 ppm foliar spray | [2]; 500 ppm foliar spray | [3]; 200 ppm foliar spray | [3]; 500 ppm foliar spray | [4]; 200 ppm foliar spray

Cc1cc(-c2ccc(Cl)nn2)ccc1OCc1c(C)cccc1-n1nnn(C)c1=O [Present Compound 98]
≤ 30%: [5] | [1]; 200 ppm foliar spray | [2]; 500 ppm foliar spray | [3]; 200 ppm foliar spray | [3]; 500 ppm foliar spray | [4]; 200 ppm foliar spray

Cc1cc(-c2cccnc2)ccc1OCc1c(C)cccc1-n1nnn(C)c1=O [Present Compound 106]
≤ 30%: [5] | [1]; 200 ppm foliar spray | [1]; 500 ppm foliar spray | [2]; 200 ppm foliar spray | [2]; 500 ppm foliar spray | [3]; 200 ppm foliar spray | [3]; 500 ppm foliar spray | [4]; 200 ppm foliar spray
